From publication PMC12173946
These are yes or no findings as the source states them, for the method shown. Binding seen in cells or lysates may run through a third protein. Some results given as binding are weak or reduced against the parent protein; the word gives no strength. For some of these results: Tags and fused reporters may be left off the sequences shown. Each block holds one binder with its values, some of them ahead of it.

Protein sequences, listed by entry. Tags and fused reporters are not part of them.
UniProt P05556: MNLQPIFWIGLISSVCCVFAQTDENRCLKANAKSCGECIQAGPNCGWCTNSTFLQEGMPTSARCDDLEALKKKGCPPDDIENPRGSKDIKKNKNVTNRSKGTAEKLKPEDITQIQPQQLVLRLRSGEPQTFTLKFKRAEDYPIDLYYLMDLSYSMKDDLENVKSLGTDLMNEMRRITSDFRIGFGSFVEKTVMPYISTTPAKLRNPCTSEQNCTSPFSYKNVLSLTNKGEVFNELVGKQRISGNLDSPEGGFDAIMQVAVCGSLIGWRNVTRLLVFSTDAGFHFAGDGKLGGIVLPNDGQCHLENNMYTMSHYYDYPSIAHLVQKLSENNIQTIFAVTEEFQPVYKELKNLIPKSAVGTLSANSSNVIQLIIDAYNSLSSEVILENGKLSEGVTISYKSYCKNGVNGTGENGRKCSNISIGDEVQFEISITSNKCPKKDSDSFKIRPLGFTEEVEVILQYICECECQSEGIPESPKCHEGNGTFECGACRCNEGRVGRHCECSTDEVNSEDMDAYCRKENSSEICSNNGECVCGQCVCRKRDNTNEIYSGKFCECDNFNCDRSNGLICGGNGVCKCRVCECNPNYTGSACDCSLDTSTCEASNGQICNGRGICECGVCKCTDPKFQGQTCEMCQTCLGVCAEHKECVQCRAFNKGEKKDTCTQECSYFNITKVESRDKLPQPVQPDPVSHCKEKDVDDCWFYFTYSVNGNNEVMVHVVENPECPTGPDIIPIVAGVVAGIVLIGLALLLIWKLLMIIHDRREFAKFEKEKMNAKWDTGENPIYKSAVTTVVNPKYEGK
UniProt Q14247: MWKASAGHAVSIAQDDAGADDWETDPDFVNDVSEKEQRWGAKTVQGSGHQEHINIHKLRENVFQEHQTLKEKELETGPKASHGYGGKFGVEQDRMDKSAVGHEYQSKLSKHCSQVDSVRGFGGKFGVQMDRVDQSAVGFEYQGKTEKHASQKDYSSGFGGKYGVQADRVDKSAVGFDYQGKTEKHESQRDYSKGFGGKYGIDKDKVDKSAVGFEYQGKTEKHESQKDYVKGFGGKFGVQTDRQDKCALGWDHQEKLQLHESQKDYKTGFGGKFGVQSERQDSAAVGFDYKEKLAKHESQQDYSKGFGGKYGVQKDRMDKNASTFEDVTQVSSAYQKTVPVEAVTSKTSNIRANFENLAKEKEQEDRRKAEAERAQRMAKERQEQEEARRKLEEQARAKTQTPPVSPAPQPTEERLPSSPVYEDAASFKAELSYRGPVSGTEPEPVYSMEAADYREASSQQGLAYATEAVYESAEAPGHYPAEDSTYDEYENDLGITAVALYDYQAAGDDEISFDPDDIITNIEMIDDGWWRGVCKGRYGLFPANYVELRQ

Tests used:
[1] = target: mRuby2-tagged ITGB1 wild-type (integrin β1) (UniProt P05556); assay: FRET or BRET; intermolecular frequency-domain FLIM–FRET in MM231 shβ1 cells stably re-expressing ITGB1(WT or YYFF)–mRuby2 (acceptor), transfected with a Clover- or GFP-tagged donor; apparent FRET efficiency per cell; for the PTPs and Clover alone with or without VO4^3− (100 μM, 2 h)
[2] = target: ITGB1-V1/Dok1-V2 complex (restored Venus) (UniProt P05556); assay: co-IP; BiCAP immunoblot: GFP-trap IP of the ITGB1-V1/Dok1-V2 complex (Venus alone as control) from MM231 and HEK293T cells, blots for annexin A6, VPS35 and Cofilin
[3] = target: ITGB1-V1/Dok1-V2 complex (restored Venus) (UniProt P05556); assay: FRET or BRET; BiFC–FLIM–FRET in MM231 cells: restored Venus of ITGB1-V1/Dok1-V2 as donor, RFP- or mScarlet-tagged protein as acceptor; Venus alone as control
[4] = target: T1, mScarlet–TKS5 (UniProt Q5TCZ1); assay: FRET or BRET; intermolecular FLIM–FRET of tagged protein pairs (Clover or mEmerald donor, mRFP or mScarlet acceptor); mScarlet alone with the donor-tagged protein as negative control
T1 sequence: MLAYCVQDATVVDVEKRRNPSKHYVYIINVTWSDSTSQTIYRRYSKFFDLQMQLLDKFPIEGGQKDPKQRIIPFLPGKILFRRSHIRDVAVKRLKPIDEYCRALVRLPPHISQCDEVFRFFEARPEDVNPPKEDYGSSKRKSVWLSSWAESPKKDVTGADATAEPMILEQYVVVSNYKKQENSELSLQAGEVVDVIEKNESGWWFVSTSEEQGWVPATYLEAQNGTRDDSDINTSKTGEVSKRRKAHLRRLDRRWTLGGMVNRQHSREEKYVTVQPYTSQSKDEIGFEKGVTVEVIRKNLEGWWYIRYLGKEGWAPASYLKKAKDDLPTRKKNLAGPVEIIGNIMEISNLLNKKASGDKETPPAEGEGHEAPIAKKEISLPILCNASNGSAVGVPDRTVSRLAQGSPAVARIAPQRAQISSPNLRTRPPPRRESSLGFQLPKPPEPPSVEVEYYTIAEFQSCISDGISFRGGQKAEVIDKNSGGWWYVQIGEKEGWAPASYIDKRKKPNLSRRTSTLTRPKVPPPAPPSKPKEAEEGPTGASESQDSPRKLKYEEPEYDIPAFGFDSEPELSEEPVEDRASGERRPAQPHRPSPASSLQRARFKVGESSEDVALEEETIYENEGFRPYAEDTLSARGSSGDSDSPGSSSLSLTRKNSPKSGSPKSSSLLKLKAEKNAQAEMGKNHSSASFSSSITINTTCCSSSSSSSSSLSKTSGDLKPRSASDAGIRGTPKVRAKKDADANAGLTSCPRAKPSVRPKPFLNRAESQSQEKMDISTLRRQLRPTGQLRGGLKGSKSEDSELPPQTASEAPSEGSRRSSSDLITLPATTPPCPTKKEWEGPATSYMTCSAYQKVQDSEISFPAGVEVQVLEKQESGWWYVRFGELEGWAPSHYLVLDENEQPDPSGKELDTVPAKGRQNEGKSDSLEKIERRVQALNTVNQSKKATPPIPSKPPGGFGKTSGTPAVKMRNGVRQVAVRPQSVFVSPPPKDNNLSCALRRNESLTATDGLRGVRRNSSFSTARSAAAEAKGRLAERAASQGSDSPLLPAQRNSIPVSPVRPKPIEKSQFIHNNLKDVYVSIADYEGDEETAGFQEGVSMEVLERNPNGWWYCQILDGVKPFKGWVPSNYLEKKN

[5] = target: CTTN–mEmerald (UniProt Q14247); assay: as above
[6] = target: ITGB1-V1 (UniProt P05556); assay: split reporter; BiCAP: Venus halves V1 (on ITGB1) and V2 (on Dok1) complement in transfected cells; the restored Venus is captured on GFP-trap beads and both proteins are found (immunoblot, mass spectrometry)

binding [1]: binds
B1: PTP-PEST-Clover (enzyme, UniProt Q05209 1-780)
chain: MEQVEILRKFIQRVQAMKSPDHNGEDNFARDFMRLRRLSTKYRTEKIYPTATGEKEENVKKNRYKDILPFDHSRVKLTLKTPSQDSDYINANFIKGVYGPKAYVATQGPLANTVIDFWRMIWEYNVVIIVMACREFEMGRKKCERYWPLYGEDPITFAPFKISCEDEQARTDYFIRTLLLEFQNESRRLYQFHYVNWPDHDVPSSFDSILDMISLMRKYQEHEDVPICIHCSAGCGRTGAICAIDYTWNLLKAGKIPEEFNVFNLIQEMRTQRHSAVQTKEQYELVHRAIAQLFEKQLQLYEIHGAQKIADGVNEINTENMVSSIEPEKQDSPPPKPPRTRSCLVEGDAKEEILQPPEPHPVPPILTPSPPSAFPTVTTVWQDNDRYHPKPVLHMVSSEQHSADLNRNYSKSTELPGKNESTIEQIDKKLERNLSFEIKKVPLQEGPKSFDGNTLLNRGHAIKIKSASPCIADKISKPQELSSDLNVGDTSQNSCVDCSVTQSNKVSVTPPEESQNSDTPPRPDRLPLDEKGHVTWSFHGPENAIPIPDLSEGNSSDINYQTRKTVSLTPSPTTQVETPDLVDHDNTSPLFRTPLSFTNPLHSDDSDSDERNSDGAVTQNKTNISTASATVSAATSTESISTRKVLPMSIARHNIAGTTHSGAEKDVDVSEDSPPPLPERTPESFVLASEHNTPVRSEWSELQSQERSEQKKSEGLITSENEKCDHPAGGIHYEMCIECPPTFSDKREQISENPTEATDIGFGNRCGKPKGPRDPPSEWT

binding [2]: binds
B2: annexin A6 (co-precipitated from cell lysate) (protein, UniProt P08133 1-673)
chain: MAKPAQGAKYRGSIHDFPGFDPNQDAEALYTAMKGFGSDKEAILDIITSRSNRQRQEVCQSYKSLYGKDLIADLKYELTGKFERLIVGLMRPPAYCDAKEIKDAISGIGTDEKCLIEILASRTNEQMHQLVAAYKDAYERDLEADIIGDTSGHFQKMLVVLLQGTREEDDVVSEDLVQQDVQDLYEAGELKWGTDEAQFIYILGNRSKQHLRLVFDEYLKTTGKPIEASIRGELSGDFEKLMLAVVKCIRSTPEYFAERLFKAMKGLGTRDNTLIRIMVSRSELDMLDIREIFRTKYEKSLYSMIKNDTSGEYKKTLLKLSGGDDDAAGQFFPEAAQVAYQMWELSAVARVELKGTVRPANDFNPDADAKALRKAMKGLGTDEDTIIDIITHRSNVQRQQIRQTFKSHFGRDLMTDLKSEISGDLARLILGLMMPPAHYDAKQLKKAMEGAGTDEKALIEILATRTNAEIRAINEAYKEDYHKSLEDALSSDTSGHFRRILISLATGHREEGGENLDQAREDAQVAAEILEIADTPSGDKTSLETRFMTILCTRSYPHLRRVFQEFIKMTNYDVEHTIKKEMSGDVRDAFVAIVQSVKNKPLFFADKLYKSMKGAGTDEKTLTRIMVSRSEIDLLNIRREFIEKYDKSLHQAIEGDTSGDFLKALLALCGGED

binding [3]: binds
B3: mScarlet-tagged Annexin A6 (protein, UniProt P08133 1-673)
chain: MAKPAQGAKYRGSIHDFPGFDPNQDAEALYTAMKGFGSDKEAILDIITSRSNRQRQEVCQSYKSLYGKDLIADLKYELTGKFERLIVGLMRPPAYCDAKEIKDAISGIGTDEKCLIEILASRTNEQMHQLVAAYKDAYERDLEADIIGDTSGHFQKMLVVLLQGTREEDDVVSEDLVQQDVQDLYEAGELKWGTDEAQFIYILGNRSKQHLRLVFDEYLKTTGKPIEASIRGELSGDFEKLMLAVVKCIRSTPEYFAERLFKAMKGLGTRDNTLIRIMVSRSELDMLDIREIFRTKYEKSLYSMIKNDTSGEYKKTLLKLSGGDDDAAGQFFPEAAQVAYQMWELSAVARVELKGTVRPANDFNPDADAKALRKAMKGLGTDEDTIIDIITHRSNVQRQQIRQTFKSHFGRDLMTDLKSEISGDLARLILGLMMPPAHYDAKQLKKAMEGAGTDEKALIEILATRTNAEIRAINEAYKEDYHKSLEDALSSDTSGHFRRILISLATGHREEGGENLDQAREDAQVAAEILEIADTPSGDKTSLETRFMTILCTRSYPHLRRVFQEFIKMTNYDVEHTIKKEMSGDVRDAFVAIVQSVKNKPLFFADKLYKSMKGAGTDEKTLTRIMVSRSEIDLLNIRREFIEKYDKSLHQAIEGDTSGDFLKALLALCGGED

binding [4]: binds
binding [1]: binds
B4: Dok1–Clover (protein, UniProt Q99704 1-481)
chain: MDGAVMEGPLFLQSQRFGTKRWRKTWAVLYPASPHGVARLEFFDHKGSSSGGGRGSSRRLDCKVIRLAECVSVAPVTVETPPEPGATAFRLDTAQRSHLLAADAPSSAAWVQTLCRNAFPKGSWTLAPTDNPPKLSALEMLENSLYSPTWEGSQFWVTVQRTEAAERCGLHGSYVLRVEAERLTLLTVGAQSQILEPLLSWPYTLLRRYGRDKVMFSFEAGRRCPSGPGTFTFQTAQGNDIFQAVETAIHRQKAQGKAGQGHDVLRADSHEGEVAEGKLPSPPGPQELLDSPPALYAEPLDSLRIAPCPSQDSLYSDPLDSTSAQAGEGVQRKKPLYWDLYEHAQQQLLKAKLTDPKEDPIYDEPEGLAPVPPQGLYDLPREPKDAWWCQARVKEEGYELPYNPATDDYAVPPPRSTKPLLAPKPQGPAFPEPGTATGSGIKSHNSALYSQVQKSGASGSWDCGLSRVGTDKTGVKSEGST

binding [5]: binds
B5: Dok1–mScarlet (protein, UniProt Q99704 1-481)
chain: MDGAVMEGPLFLQSQRFGTKRWRKTWAVLYPASPHGVARLEFFDHKGSSSGGGRGSSRRLDCKVIRLAECVSVAPVTVETPPEPGATAFRLDTAQRSHLLAADAPSSAAWVQTLCRNAFPKGSWTLAPTDNPPKLSALEMLENSLYSPTWEGSQFWVTVQRTEAAERCGLHGSYVLRVEAERLTLLTVGAQSQILEPLLSWPYTLLRRYGRDKVMFSFEAGRRCPSGPGTFTFQTAQGNDIFQAVETAIHRQKAQGKAGQGHDVLRADSHEGEVAEGKLPSPPGPQELLDSPPALYAEPLDSLRIAPCPSQDSLYSDPLDSTSAQAGEGVQRKKPLYWDLYEHAQQQLLKAKLTDPKEDPIYDEPEGLAPVPPQGLYDLPREPKDAWWCQARVKEEGYELPYNPATDDYAVPPPRSTKPLLAPKPQGPAFPEPGTATGSGIKSHNSALYSQVQKSGASGSWDCGLSRVGTDKTGVKSEGST

binding [6]: binds
B6: Dok1-V2 (protein, UniProt Q99704 1-481)
chain: MDGAVMEGPLFLQSQRFGTKRWRKTWAVLYPASPHGVARLEFFDHKGSSSGGGRGSSRRLDCKVIRLAECVSVAPVTVETPPEPGATAFRLDTAQRSHLLAADAPSSAAWVQTLCRNAFPKGSWTLAPTDNPPKLSALEMLENSLYSPTWEGSQFWVTVQRTEAAERCGLHGSYVLRVEAERLTLLTVGAQSQILEPLLSWPYTLLRRYGRDKVMFSFEAGRRCPSGPGTFTFQTAQGNDIFQAVETAIHRQKAQGKAGQGHDVLRADSHEGEVAEGKLPSPPGPQELLDSPPALYAEPLDSLRIAPCPSQDSLYSDPLDSTSAQAGEGVQRKKPLYWDLYEHAQQQLLKAKLTDPKEDPIYDEPEGLAPVPPQGLYDLPREPKDAWWCQARVKEEGYELPYNPATDDYAVPPPRSTKPLLAPKPQGPAFPEPGTATGSGIKSHNSALYSQVQKSGASGSWDCGLSRVGTDKTGVKSEGST
